For at least one entry, the source does not settle the construct or the ends of the probe. Results from cells or extracts need not show a direct contact. No signal at the amounts used counts as a negative.

For this series, the system named is RNA polymerase II (phospho-Ser5 CTD form, detected by immunoblot) (Danio rerio (zebrafish), 5 dpf larvae). Description: pull-down (immunoblot). The following applies: RNA folded in 10 mM Tris pH 7, 0.1 M KCl, 10 mM MgCl2 (1x), binding to 3 mg larval extract in RIP buffer (25 mM Tris pH 7.4, 150 mM KCl, 0.5 mM DTT, 0.5% NP-40), protein in an extract, label: 3' biotin. On the technique in general: In western blotting, separated proteins are transferred to a membrane and probed.

[1] abbreviates: no statistically significant interaction.

As for “CAAGAAUUCGGCUCUGC [zebrafish T1000mut aptamer (G194A)]”, the binding result under setting [1] was “no binding”.

As to “GAAGGUUUGCGGACCUCAAACACUGAUCCUGCAAAUAC [zebrafish CR7 aptamer]”, under setting [1], the binding result is on record as “no binding”.

Take “CACAGGUUUGGCUGUUUGUACGCGGACAGUUUGACUGCCGCCAAGAGUUCGGCUCUGCUGCACAUUCGGCAGGUCUGUG [zebrafish T800 aptamer (full CR4/CR5 domain)]”: the binding result (similar efficiency to terc) is “binds”.

Regarding “CAAGAGUUCGGCUCUGC [zebrafish T1000 aptamer (P6.1 fork)]”, the binding result (similar efficiency to terc) is recorded as “binds”.

(Values after paper PMC10516865.)
